B1: GST-SCIMP-T1 (entire intracellular region of murine SCIMP, amino acids 29-150) [mouse] / His-TLR4-TIR (cytoplasmic TIR domain of mouse TLR4, amino acids 670-835) [mouse] (parent complex)
chain 1: CVCRWQLRQGRNWEIAKPSKQDGRDEEKMYENVLNSSPGQLPALPPRGSPFPGDLAPQEAPRQPSAWYSSVKKVRNKKVFAISGSTEPENDYDDVEIPATTETQHSKTTPFWQAEVGLHSSF
chain 2: SIYDAFVIYSSQNEDWVRNELVKNLEEGVPRFHLCLHYRDFIPGVAIAANIIQEGFHKSRKVIVVVSRHFIQSRWCIFEYEIAQTWQFLSSRSGIIFIVLEKVEKSLLRQQVELYRLLSRNTYLEWEDNPLGRHIFWRRLKNALLDGKASNPEQTAEEEQETATWT

Variants of: B1
Experiment: GST pull-down, immunoblot densitometry; parent: 100; read off a plot

Row | percent of parent [%] | Variant
1 | ~16 | chain 1 W67A
2 | ~140 | chain 1 Y68F
3 | ~100 | chain 1 S69A
4 | ~120 | chain 1 V71A
5 | ~79 | chain 1 S70A

From PMC5253658 (2017)
